Measured values published in paper PMC12313994.
Results are given in words; binding and its absence hold for the method and conditions named. Binding seen in cells or lysates may run through a third protein. Some results given as binding are weak or reduced against the parent protein; the word gives no strength.

Chains of the proteins cited; added tags and fusions are not shown.
UniProt Q8IXI2: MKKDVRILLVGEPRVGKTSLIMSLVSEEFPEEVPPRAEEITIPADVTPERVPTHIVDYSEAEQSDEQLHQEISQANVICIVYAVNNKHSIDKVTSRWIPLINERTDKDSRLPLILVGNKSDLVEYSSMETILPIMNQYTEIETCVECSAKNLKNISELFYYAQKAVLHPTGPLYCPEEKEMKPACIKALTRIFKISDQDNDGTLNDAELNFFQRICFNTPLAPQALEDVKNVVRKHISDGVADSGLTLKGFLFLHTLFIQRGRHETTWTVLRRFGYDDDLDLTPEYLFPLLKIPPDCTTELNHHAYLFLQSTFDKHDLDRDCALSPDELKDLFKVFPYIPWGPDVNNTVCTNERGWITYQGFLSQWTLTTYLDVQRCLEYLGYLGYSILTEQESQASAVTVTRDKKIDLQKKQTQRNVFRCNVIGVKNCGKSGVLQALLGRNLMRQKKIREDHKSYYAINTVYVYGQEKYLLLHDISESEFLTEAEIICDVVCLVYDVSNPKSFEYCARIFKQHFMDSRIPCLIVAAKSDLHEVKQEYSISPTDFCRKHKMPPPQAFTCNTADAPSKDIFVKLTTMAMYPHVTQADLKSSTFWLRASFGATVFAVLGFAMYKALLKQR

Columns and labels:
[1] = molecular target: T1, TRAK2 (human (endogenous in hCMEC/d3)) (UniProt O60296); test: co-IP; anti-TRAK2 or control IgG added to lysates of Wt or ΔTRAK2 ECs (NP-40 lysis buffer: 20 mM Tris-HCl pH 8, 137 mM NaCl, 10% glycerol, 1% Nonidet P-40, 2 mM EDTA), 4 °C overnight, Protein A/G magnetic beads; western blot for TRAK2 and MIRO1
T1 sequence: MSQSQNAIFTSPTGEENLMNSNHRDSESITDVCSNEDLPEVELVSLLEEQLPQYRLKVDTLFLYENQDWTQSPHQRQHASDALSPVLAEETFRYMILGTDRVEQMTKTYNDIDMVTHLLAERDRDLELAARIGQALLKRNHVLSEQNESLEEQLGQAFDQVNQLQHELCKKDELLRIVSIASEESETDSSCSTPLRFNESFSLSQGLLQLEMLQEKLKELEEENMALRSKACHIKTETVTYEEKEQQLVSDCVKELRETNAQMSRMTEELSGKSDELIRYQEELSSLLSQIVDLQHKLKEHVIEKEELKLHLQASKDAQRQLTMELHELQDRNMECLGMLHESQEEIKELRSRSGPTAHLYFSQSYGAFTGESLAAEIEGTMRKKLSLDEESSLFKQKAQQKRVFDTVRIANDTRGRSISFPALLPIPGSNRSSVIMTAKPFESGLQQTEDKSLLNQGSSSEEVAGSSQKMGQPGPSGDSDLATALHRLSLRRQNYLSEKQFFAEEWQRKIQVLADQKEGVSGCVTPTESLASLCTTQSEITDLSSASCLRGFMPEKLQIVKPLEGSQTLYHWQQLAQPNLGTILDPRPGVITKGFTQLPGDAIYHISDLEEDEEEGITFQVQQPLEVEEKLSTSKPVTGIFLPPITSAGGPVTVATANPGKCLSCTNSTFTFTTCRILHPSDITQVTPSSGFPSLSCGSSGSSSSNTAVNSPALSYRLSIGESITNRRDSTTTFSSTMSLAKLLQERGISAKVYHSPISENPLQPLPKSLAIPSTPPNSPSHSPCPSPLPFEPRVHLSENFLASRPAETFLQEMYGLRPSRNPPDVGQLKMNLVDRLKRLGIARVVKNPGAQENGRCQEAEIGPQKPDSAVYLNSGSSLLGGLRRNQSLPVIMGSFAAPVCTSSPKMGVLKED

[2] = molecular target: T1, TRAK2 (human (endogenous in hCMEC/d3)); test: proximity ligation; Duolink PLA with anti-TRAK2 and anti-MIRO1 in fixed, permeabilised Wt or ΔTRAK2 ECs on CDM; control without primary antibody; both proteins <40 nm apart

binding [1]: binds
binding [2]: binds
Substance: MIRO1 (from UniProt Q8IXI2 1-618)
